Laboratory results as given in US20170246137A1, “SULFESTROL FOR TREATING CANCER” (CHAMAELEO PHARMA BVBA, priority 2012, published 2017).
pIC50: −log10 of the molar value.

How the values were obtained:
[1] = test system: MCF7; experiment: In vitro direct cytotoxicity, Cell titer Blue viability, 72 hrs; details: read-out: IC50 value, MCF7, hormone-dependent breast cancer cell line
Experimental: (§1) Cells were maintained in vitro in RPMI 1640 containing 10% (v/v) heat inactivated FBS and 2 mM L-glutamine (growth media) at 37° C. in 5% CO2 and humidified conditions. Cells were harvested, washed, resuspended into growth medium and counted. The cells were re-suspended into assay media (RPMI 1640+1% (v/v) heat inactivated FBS+ and 2 mM L-glutamine) at 0.5-1×10^5 cells/ml (dependent upon cell type) and plated into 96-well assay plates (Corning, black-wall plates) in 50 ul/well aliquots.
(§2) Plates were incubated overnight at 37° C. in 5% humidified CO2 prior to addition of the compounds. […] Stocks of all compounds were then serially diluted. Final concentrations to which cells were exposed were 300, 150, 75, 37.5, 18.75, 9.4, 4.7, 2.3, 1.2, 0.6 μM. Positive control was Cisplatin. Cisplatin was diluted in 1% FBS media to give a stock concentration of 1 mM. Cisplatin stock was then serially diluted. Final concentrations to which cells were exposed were 100, 50, 25, 12.5, 6.3, 3.1, 1.6, 0.8, 0.4, 0.2 μM.
(§3) Plates were incubated for 72 hrs at 37° C. in 5% humidified CO2 after addition of the compounds. Viability of the cells was assessed with the Cell titer Blue™ (Promega) assay. 10 μl of Cell titer Blue™ reagents was added to each test/blank well. Plates were incubated 3 h at 37° C. in 5% humidified CO2 prior to analysis. Fluorescence was measured with a Flex II station plate reader. […]

[2] = test system: MDA-MB-231; experiment: as above; details: read-out: IC50 value, MDA-MB-231, triple negative breast cancer cell line
Experimental: as §1, §2, §3

How did the pIC50 [1] turn out when `N.N.[Cl][Pt][Cl]` [Cisplatin, reference compound] was run?
The pIC50 was 5.55.

And the pIC50 [2]?
Its pIC50 is 4.89.
